Results as given in patent publication US20210047372A1 (Affibody, published 2021).

Amino acid sequences for entries named in this document (tags omitted). A change or cut given only in a name is not applied to a line headed by its entry.
UniProt P01308: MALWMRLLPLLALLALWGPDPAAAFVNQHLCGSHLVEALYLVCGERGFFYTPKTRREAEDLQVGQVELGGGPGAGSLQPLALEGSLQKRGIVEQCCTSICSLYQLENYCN

Molecular target: T1, insulin (UniProt P01308 25-54; P01308 90-110, limits assumed)
T1 construct: Mature insulin has two chains (A and B) from one precursor; also called b-insulin
Experiment: SPR, Biacore T200

Binder	binding
Y00263 (designed binder, Y00032 with D13K) MGSSHHHHHHGSSLAEAKEAAIAELKSKGVGAYQKSFIELAKSVEHVELLKEAILADLP	binds
Y00275 (designed binder, Y00032 with E39Q) MGSSHHHHHHGSSLAEAKEAAIAELDSKGVGAYQKSFIELAKSVEHVELLKQAILADLP	binds
Y00268 (designed binder, Y00032 with K22I) MGSSHHHHHHGSSLAEAKEAAIAELDSKGVGAYQISFIELAKSVEHVELLKEAILADLP	binds
Y00276 (designed binder, Y00032 with A43K) MGSSHHHHHHGSSLAEAKEAAIAELDSKGVGAYQKSFIELAKSVEHVELLKEAILKDLP	binds
Y00267 (designed binder, Y00032 with A19E) MGSSHHHHHHGSSLAEAKEAAIAELDSKGVGEYQKSFIELAKSVEHVELLKEAILADLP	binds
Y00274 (designed binder, Y00032 with E35Q) MGSSHHHHHHGSSLAEAKEAAIAELDSKGVGAYQKSFIELAKSVEHVQLLKEAILADLP	binds
Y00272 (designed binder, Y00032 with A28G) MGSSHHHHHHGSSLAEAKEAAIAELDSKGVGAYQKSFIELGKSVEHVELLKEAILADLP	binds
Y00266 (designed binder, Y00032 with G18S) MGSSHHHHHHGSSLAEAKEAAIAELDSKGVSAYQKSFIELAKSVEHVELLKEAILADLP	binds
Y00264 (designed binder, Y00032 with K15Y) MGSSHHHHHHGSSLAEAKEAAIAELDSYGVGAYQKSFIELAKSVEHVELLKEAILADLP	binds
Y00269 (designed binder, Y00032 with S23K) MGSSHHHHHHGSSLAEAKEAAIAELDSKGVGAYQKKFIELAKSVEHVELLKEAILADLP	binds

Continued, values first:

binding	Binder
binds	Y00265 (designed binder, Y00032 with V17I) MGSSHHHHHHGSSLAEAKEAAIAELDSKGIGAYQKSFIELAKSVEHVELLKEAILADLP
binds	Y00273 (designed binder, Y00032 with E32Q) MGSSHHHHHHGSSLAEAKEAAIAELDSKGVGAYQKSFIELAKSVQHVELLKEAILADLP
binds	Y00270 (designed binder, Y00032 with K22I + S23K) MGSSHHHHHHGSSLAEAKEAAIAELDSKGVGAYQIKFIELAKSVEHVELLKEAILADLP
binds	Y00271 (designed binder, Y00032 with E26Q) MGSSHHHHHHGSSLAEAKEAAIAELDSKGVGAYQKSFIQLAKSVEHVELLKEAILADLP

No constants are given. Whether binding was seen depends on the method and setting. A result given as binding can be weak or reduced; the word gives no strength.
